Results as given in US7071294B1 (Green Peptide Co., Ltd., priority 1998, dated 2006).

Legend:
[1] = general procedure: Fmoc solid-phase peptide synthesis; Fmoc-Leu-Alko Resin; details: whole synthesis, scale 50 mg resin
[2] = general procedure: Fmoc solid-phase peptide synthesis; Fmoc-Ile-Alko Resin; details: whole synthesis, scale 50 mg resin

With GFDCANESVL as the sequence, how does the isolated mass [1] read?
Its isolated mass is 15.4 mg.

For LYQAVATI, which isolated mass [2] is on record?
The isolated mass was 12.4 mg.

Which isolated mass [1] does the source give for EYCLKFTKL here?
Its isolated mass is 37.5 mg.

Where no end group is shown, it is not given here.
